{"source": "paper PMC11651612", "binders": {"B1": {"name": "Rho GTPase activator (protein, UniProt J9VRK0 1-1393)", "chain": "MSSPTYPKPTVPPPGAWPSRPSLDDSTPRRSIDQRQGPFLHLSQPNSSTHHADSSESSRRNSMASGSIHNSPSSLGSSSKNLGRFDEHAPLQTAVELPTRGEPGFVGSARLPWITTSAIDSESGPRSAPVESGRLRSSGAGSAPLRSSSSPDPWMNQTSQRSSPSTSPIDHRPNFATGHGQVSFQGNLVPPYLHGQERRPSPASSLTGGRPLPPRKASDQSTSSQTPSTATFHSDNIGMSDGQPLLQWPQPRTRKDGGGTTCGQCAQTVHGQFVRAMGKVYHLNCFRCKDCNKVVAQKFFPVEDGDGMYPLCERDYFARLDLICAKCDQALRASYITACGAKYHVEHFTCSECDVLFGPNDSYYEHDGRVYCHYHYSTRFAVKCVGCETAILKQFVEMNRNGRNECWHPECYMISKFWNVRLASKTFNTPASSAVASTISLLEMSSITAPGAPVTSASQLIQIPLDSPNPESHITPAELKERQEAMEMKVQQIWHVLSGYEESSAALIGDMLRAVNERNLLDIILLAERFILHVETLFAVIDDIEAQFAMVGAKGIPHAREAKQLCRKLVNLFSNMSQISPAGGPSPSSNELFTLITQLAHYLKILIRIALTGSIKLEREYNNQTAMTNCLARLNLLAMDSGDPNIKKRGDWPDVSPQNGNGMQSQNGHGEGFSVDEGQGGVQGDEEQLKKSMDALTRRPTGYLSSTRDIAYGYRSLAPEVTGETTLRGPQDEDFIPLEGCAQCGAPIEEDCVRLGMFLRWHCACIACNVCGETALQSVRDDMTDEGSTHSHTDTGSNSGIMSRQNSVRNTPAKVDYFWFAPEHFSGMAKPPEKIWCGIHKNLNGSWKGFEGVSRLEQYAFLLHIALRRLYVHFRLHHSLQSVRDHGISGRAESEVKRMKSVTLDRKLSSTARLPQRSMVVESPAGRMADGNGQIISARNAESPTPTPKERQTEIIITTEDASNNATTVNVLRPPFARNNTSVKIIKENSEESPQRGFRRVSAPKEDDAITLGDISLLADKDRRPDNRPLLSNLSPLQSIILRHFALLQLQKTSLGPLIDLDDMLDLLDARKGQWWNKIFKGNAKKDTKKKGLFGVPIEVLVERTGSDSSFGVPNSQVRVPEFIEDIISTMRQMDMAVEGVFRKNGNIRKLQTLVEALDKDSTAVNLSEENVIQLAALLKRFLRELPDPLLTFRLHRLFCAAATLPSSEERSRCLHLLISLLPKYNRDTMEVLFIFLKWVSSFSYREEETGSKMDLANLATVICPSILYAKGSNAVKDDSFTAIAAVQELLENQDEYYRVPSELLFVIQEGIYQIFAKDLDLPPKEIFRHCSKYTQARSAAQPQQQRLGIPHSNSSSQVSQTSVSRSVESATRISQVTITADSSSGNYRPPLP"}, "B2": {"name": "2-hydroxyacid dehydrogenase (protein, UniProt J9VX79 1-335)", "chain": "MSKPQVLIAANPKTGIVWSKEEQSSKLGAVAEVLELTSASRSEFFQDLASNGKYANIVAIYRHNDSVSAIGLFDEELINKLPTSVKYICHNGAGYDQIDIAACTARGIQVSHTPQAVDDATATVGAFLAISAMRQFWRAEVNVRSGKWKAGLSPARDPEGKTLGIIGMGGIGSALARRLLAFDMKVIYYNRRPIQPPPNFPCTYVSSIEELLQQADVVSLNLPLNENTRGSFGRKAFSLMKDGSVLINTARGAVIDEEAFIEALESGKLYSAGIDVYPDEPNVNPKLLAMDNITLLPHMGTETRDSQKKMELLVLDNMVSALTGKGLLNQVPEQK"}, "B3": {"name": "ATP-dependent (S)-NAD(P)H-hydrate dehydratase (protein, UniProt J9VIT7 1-346)", "chain": "MASKQHAHILSLARSMIPPLHPKLHKGQAGRIGVLGGSGDYSGAPYFSSMGAMRFGADLAHVICEPSAGAVIKTYSPDLIVHTILDPQKSREDIRSALKGVMSRLHVLIIGPGLGRDDHMQSCAKIAFELAKDMEQMGVVVDADGLWLVQNEPKVVMDWPGVPRIILTPNVMEFKRLCDTMKINASGPHTSLCPQLATALGNATIIQKGPSDIISNGLKIPFALLSDESEEEQNYLEVKVEGGLKRVGGQGDILSGSTGVLLAWGSEWVRGTYEHVGHPPPQDKAIKENIPVLAAYGASTFNRTVSKRGFQKKGRSMVTGDLVDMVGEVYEEVFGNPGEVEGRGKL"}, "B4": {"name": "Adaptin ear-binding coat-associated protein 2 (protein, UniProt J9VEV2 1-202)", "chain": "MESLTDEIEAVLFVAREVMVYQIPPRTTTAGYKAAEWNVESFLWKGRMRVLDVGSRSEIRLEDSNTGELFAQVNYVSPWNQVEPVLDSSRYFVLRVEGEGGKRAYIGMGFAERGESFDFQVALQSVTKRSQNISSSSNPSEQPQPTAPPKDYSLKDGQTFTIKIPGREGKKPSPSQTPSSGGGGGGGGLFSLPPPPPPGRRG"}, "B5": {"name": "ADF-H domain-containing protein (protein, UniProt J9VKE8 1-147)", "chain": "MADVTDSKIAEAYEQIRSNGSEESWMLLDYESEKSNKLVLTATGKGDLSELSAQLKPENASFAYAKVRYENDEHSFREKFILVIWIGENVKVMRRARVSVHAADVKKVLRTYSIEISASTPADLEQDDVVTRLRRAGGANYDRSKFD"}, "B6": {"name": "Vacuolar protein sorting-associated protein vps17 (protein, UniProt J9VJ63 1-818)", "chain": "MDPLAHTDDINAGWSSPTTNLRFDAASAAEDTAPTSATSNPYAERNVSASENANGFGAHNSTGLGSGIVGGDIGAGYREPVVFGAPGMGLVSPPPESAFQQSQQETPGGAVQQERKAPRVYLRVRIGTLERNKKDLLIRFDASTNLSTYKNGMYRNMQRSYVEFQRFAEQLSLVCPQTIIPALPLPSTSASTDEEDDRLVRIALQRWFSRVCEDPVLMRQDEVRSFIESNFGYSPIPPPTAKRSQTNVLSALTKVVRRGPLDEDDELSSAKIALDKLEERYGHAATCVSHVGKARRQLANSNAELGAKMVSLSTVESEPSLAGAERKLGRAWEQVSGMINAQAANENVILSDTLGYQALNARAAKDTLVQRTAVLEDSQSASKAAITKRRNLERLKASSNINPAKVDDAISEMQEADSLEQSLSHRVTAISQNLHHSLRAHSRHAHEDIAISLMEAARMSAIYHKQALRELESLRADIGKVAPGAAPLDGLAISGKSPAASRVQPTQPSLVSSPPPPQSQYASPYAAQPPLTAQVGRQPPMARTSQSQVQPQPQAQPQVQPPIQPQAQTTFHPQPQAYPRNPYATQPPPSQSAAPPFPPQSQSQSSSYPIQPPGSSSQSPYGLAPNAAGPSTSSQFPPRIPTSPPTTGFPVADGTQSMFLPSGGNGGMQRSHSAAPDAPGFAGAPRMVDPLAGYPRGPAAPGMQGMQGMGQSMFVPSQSQSQASFRTHPAQPLTPNAGPGPASQAYQPQFQPPQPPYQPAQLGQGYPVQNVSGYPGQQQPQQISPFPGPAGVQRAATIATGRRKLDERKAAKMLAGGF"}, "B7": {"name": "1,4-alpha-glucan-branching enzyme (protein, UniProt J9VGQ7 1-682)", "chain": "MTAVSLSDGTGVLKTDPWLEPFSGALRERYAAYQKQRTIIEEHEGGLAEFSKGYKSMGFQVDKNGGVRYREWAPNATEARLIGEFNNWSHTANPMTKSPFGVWECYVPPVSPGVCPIPHDSMVKISMTIPGGESIDRIPTWITRVTQDLNISPVYDGRFWNPPKDQQYRFKHGHSTRPVEGLKIYEAHVGISSPNMRVTTYKEFEVDVLPKIKQLGYNCIQMMAIMEHAYYASFGYQVTNFFAASSRFGTPEELKSLVDKAHELGLTVLLDVVHSHASKNILDGINMYDGSDHLYFHEGGRGRHDQWDSRLFNYGHHEVLRFLLSNLRFWMDIYMFDGFRFDGVTSMMYKHHGIGSGFSGGYHEYFGDSVDLEAMVYLMLANAMLHENYPHVVTIAEDVSGMPTLCRPVAEGGVGFDYRLSMAIPDMWIKLLKEYTDDQWEMGHIVHNLTNRRHLEKSVAYAESHDQALVGDKTLAFWLMDKEMYDFMSDLSPLTPIIDRGLALHKMIRFIVHTLGGEAYLNFEGNEFGHPEWMDFPREGNGNSFAHARRQFNLVDDKLLRYKYLYEFDVAMNWLEDKYKWLNSPQAYVSLKHEGDKVIVFERAGLLFIFNFHPTQSFTDYRVGVDTAGEYKVILTSDETRFGGHNRIDMGGRYFTTPMEWNGRKNWLQVYSPSRTVLVLGL"}, "B8": {"name": "B30.2/SPRY domain-containing protein (protein, UniProt J9VX51 1-490)", "chain": "MPTESTPSELPLSTPHTPAGVIKCSICGIGNLSQPLSIPVSDYFGGSTVEFGERVCGRCAMARGHGEADIQSQSQNENQSRDRERGWEKESEMRERGRGSVKQENGRTLDDVLEENETAERRGVVCDLKTPTFSQSLPSQLPQPWTTTKPASSSPGNTRGLIESPKPEAASRSKEKMDQPPNPLLDITKMRVRSIDRGPLYPGSVFKGTQTSGRSAYDVEVKFLDVDFADSTLSGYLSISHLTDSHPHLTTFFTGEIIGPKYGFITGPRYAATEHDDLRHWGRFEQFRRPSTRADLVGEELFLRDPQPDRSRGETKGKERDFVFLRIKEQFLVPDHKVKDISGASFAGFYYIMVDMAPTVTVPVSQPATPLSPTFKSPFVPSSPANSRRTSGTGMPTLGLGMGMGLGATIGAGVGGGMGMAGEQISGINRTRPARPSGTRKESSGRMREREVRGEPTIRGYYFHSLNQEPFQELFLSHVPQKSKCTFEYR"}, "B9": {"name": "Acylpyruvate hydrolase (protein, UniProt J9VTE8 1-228)", "chain": "MSNFIKAGKKIVAIGRNYADHAKELGNAIPKEPFFFLKPTSSYLVPGAGPVEIPRGVVMHHEVELGVVIGKNGRNISPSTAFDHVAGYSLAVDMTARNVQDKVKAKGLPWSAAKGFDTFCPIGPFIPKHFIADPTKVGLHFSVNGTVKQSGLTSDMIFDIPQLIAFVSGIMKLEEGDLVLTGTPSGVGQIKGGETFEAKLTYPGLDGKILSKYEIECVERQGGYEFMP"}, "B10": {"name": "FK506-binding protein 1 [FRR1] (protein, UniProt O94746 1-108)", "chain": "MGVTVENISAGDGKTFPQPGDNVTIHYVGTLLDGSKFDSSRDRGTPFVCRIGQGQVIRGWDEGVPQLSVGQKANLICTPDYAYGARGFPPVIPPNSTLKFEVELLKVN"}, "B11": {"name": "Uracil phosphoribosyl transferase (protein, UniProt J9VUW0 1-213)", "chain": "MSKINISNHPLILSKLTQLRLHDLPPKDFREGIRIIGSMLIYEAARDLPLRDVPDLRSPIAPFTGQTIPLRIGLSPILRAGIGLTDAALESFPEATVLHLGLFRDKVSLQAIEYYSKLPSQVTADLVFLLDPLIATGGTAIAALNMLTEWGLDQSQIKIVSVLGSKLGVKNVQDEFPNVEIYIAAIDDELTDKGYISPGLGDAGDKLFNTFAH"}}, "note": "These are yes or no findings as the source states them, for the method shown. In cells and extracts the contact can be indirect. A yes stands for co-enrichment or nearness to the bait. Other partners may have been found. For part of these data: Tags and fused reporters may be left off the sequences shown."}
{"biological_target": "T1, Cdc3-mCherry (C. neoformans) (UniProt J9VUF2)", "T1 sequence": "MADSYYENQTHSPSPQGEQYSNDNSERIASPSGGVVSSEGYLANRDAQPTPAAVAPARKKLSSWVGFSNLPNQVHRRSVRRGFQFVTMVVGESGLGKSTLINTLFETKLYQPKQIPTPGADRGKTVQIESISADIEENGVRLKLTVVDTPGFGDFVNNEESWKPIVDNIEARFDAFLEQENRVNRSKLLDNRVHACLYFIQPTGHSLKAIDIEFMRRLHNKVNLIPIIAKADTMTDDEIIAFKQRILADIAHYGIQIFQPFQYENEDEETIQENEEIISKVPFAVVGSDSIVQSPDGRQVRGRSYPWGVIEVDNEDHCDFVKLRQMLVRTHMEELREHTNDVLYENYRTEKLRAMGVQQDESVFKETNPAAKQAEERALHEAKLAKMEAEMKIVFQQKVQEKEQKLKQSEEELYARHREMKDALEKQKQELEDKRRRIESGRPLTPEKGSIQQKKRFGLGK", "assay": "affinity purification with mass spectrometry"}
{"binder": "B1", "binding": "binds"}
{"biological_target": "T2, Cdc10-mCherry (C. neoformans) (UniProt J9VMT9)", "T2 sequence": "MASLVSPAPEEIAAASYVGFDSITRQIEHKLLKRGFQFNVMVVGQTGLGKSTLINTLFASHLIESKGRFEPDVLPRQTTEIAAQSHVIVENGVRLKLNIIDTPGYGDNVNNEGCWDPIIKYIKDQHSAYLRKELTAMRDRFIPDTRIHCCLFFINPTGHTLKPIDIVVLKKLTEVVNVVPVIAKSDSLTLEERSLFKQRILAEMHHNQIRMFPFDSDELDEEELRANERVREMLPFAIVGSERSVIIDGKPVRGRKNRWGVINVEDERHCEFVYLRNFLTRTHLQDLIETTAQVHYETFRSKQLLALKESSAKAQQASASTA", "assay": "affinity purification with mass spectrometry"}
{"binder": "B1", "binding": "binds"}
{"biological_target": "T1, Cdc3-mCherry (C. neoformans)", "assay": "affinity purification with mass spectrom"}
{"binder": "B2", "binding": "binds"}
{"binder": "B3", "binding": "binds"}
{"binder": "B4", "binding": "binds"}
{"binder": "B5", "binding": "binds"}
{"binder": "B6", "binding": "binds"}
{"binder": "B7", "binding": "binds"}
{"binder": "B8", "binding": "binds"}
{"binder": "B9", "binding": "binds"}
{"binder": "B10", "binding": "binds"}
{"biological_target": "T2, Cdc10-mCherry (C. neoformans)", "assay": "affinity purification with mass spectrom"}
{"binder": "B11", "binding": "binds"}
